Measurements published in publication PMC3799435, “Dissecting the interactions of SERRATE with RNA and DICER-LIKE 1 in Arabidopsis microRNA precursor processing” (Nucleic Acids Research, 2013).
For some assays here: The exact form of at least one protein or probe is not confirmed. The direction of at least one scale is not stated here. For some assays here: Where a protein sequence is shown, tags need not be part of it.

Chains of the proteins cited; added tags and fusions are not shown. Lines headed by an entry give the natural chain unless they say otherwise; changes in a name come on top.
UniProt Q9SP32: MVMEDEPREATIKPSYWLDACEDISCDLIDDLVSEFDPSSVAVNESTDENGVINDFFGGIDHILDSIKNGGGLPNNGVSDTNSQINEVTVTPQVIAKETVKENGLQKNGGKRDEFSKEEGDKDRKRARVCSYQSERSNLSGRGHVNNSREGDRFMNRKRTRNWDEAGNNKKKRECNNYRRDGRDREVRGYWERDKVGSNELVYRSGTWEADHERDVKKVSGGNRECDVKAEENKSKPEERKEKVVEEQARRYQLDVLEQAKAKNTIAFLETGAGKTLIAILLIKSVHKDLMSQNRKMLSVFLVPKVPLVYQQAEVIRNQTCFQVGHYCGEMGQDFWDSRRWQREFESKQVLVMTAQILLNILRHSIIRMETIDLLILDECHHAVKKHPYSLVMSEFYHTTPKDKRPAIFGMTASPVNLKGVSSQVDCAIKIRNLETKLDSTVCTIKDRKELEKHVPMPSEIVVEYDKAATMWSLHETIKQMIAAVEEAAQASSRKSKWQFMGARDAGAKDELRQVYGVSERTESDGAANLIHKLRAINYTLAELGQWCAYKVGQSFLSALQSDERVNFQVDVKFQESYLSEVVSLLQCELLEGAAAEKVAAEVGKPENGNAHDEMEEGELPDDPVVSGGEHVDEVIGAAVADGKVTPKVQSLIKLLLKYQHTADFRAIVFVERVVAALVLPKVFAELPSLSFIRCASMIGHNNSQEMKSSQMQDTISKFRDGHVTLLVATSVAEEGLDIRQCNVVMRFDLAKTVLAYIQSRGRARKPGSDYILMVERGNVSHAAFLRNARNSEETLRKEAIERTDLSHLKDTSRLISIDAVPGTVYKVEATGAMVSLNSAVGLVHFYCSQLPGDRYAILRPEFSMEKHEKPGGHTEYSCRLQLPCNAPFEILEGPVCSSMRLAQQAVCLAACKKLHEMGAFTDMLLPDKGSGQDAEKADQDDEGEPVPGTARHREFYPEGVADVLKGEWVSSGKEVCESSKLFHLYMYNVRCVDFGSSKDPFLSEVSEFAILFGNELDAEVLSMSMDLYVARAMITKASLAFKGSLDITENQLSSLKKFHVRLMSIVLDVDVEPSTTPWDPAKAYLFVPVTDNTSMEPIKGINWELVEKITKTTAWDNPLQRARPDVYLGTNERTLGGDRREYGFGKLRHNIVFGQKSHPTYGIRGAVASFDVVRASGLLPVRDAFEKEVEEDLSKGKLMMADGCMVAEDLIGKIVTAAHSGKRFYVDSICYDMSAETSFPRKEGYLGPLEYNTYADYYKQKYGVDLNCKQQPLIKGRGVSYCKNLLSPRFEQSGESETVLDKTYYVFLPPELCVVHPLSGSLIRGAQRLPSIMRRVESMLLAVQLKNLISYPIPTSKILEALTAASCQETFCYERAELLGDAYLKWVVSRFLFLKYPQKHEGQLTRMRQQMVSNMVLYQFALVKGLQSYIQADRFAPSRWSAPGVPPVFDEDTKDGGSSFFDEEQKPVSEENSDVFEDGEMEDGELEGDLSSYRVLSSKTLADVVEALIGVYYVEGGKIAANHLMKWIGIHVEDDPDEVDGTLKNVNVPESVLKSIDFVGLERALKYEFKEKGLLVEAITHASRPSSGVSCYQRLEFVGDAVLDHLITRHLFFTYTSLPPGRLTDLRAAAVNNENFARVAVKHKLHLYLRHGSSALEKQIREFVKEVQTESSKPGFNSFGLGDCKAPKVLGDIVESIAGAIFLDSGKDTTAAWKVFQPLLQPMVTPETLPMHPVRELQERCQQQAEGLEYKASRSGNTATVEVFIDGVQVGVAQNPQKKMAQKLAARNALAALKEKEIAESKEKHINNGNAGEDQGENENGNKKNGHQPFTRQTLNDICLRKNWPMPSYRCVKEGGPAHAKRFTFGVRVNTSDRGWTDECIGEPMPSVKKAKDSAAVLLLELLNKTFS

Key:
[1] = molecular target: T1, SE (untagged) (Arabidopsis thaliana) (UniProt Q9ZVD0); experiment: SPR; settings: 150 mM NaCl, nearly negligible, stated not to bind; SPR (Biacore T100): 20 mM Tris-HCl pH 7.0, 50 or 150 mM NaCl, 2 mM β-ME (0.005% P20 for SE variants); proteins 42-43 nM (Fig 2E), SE 20 nM (Fig 4); recombinant protein; residues 1-720; label: 5'-biotin on strand 1; counted as no binding
T1 sequence (looked up): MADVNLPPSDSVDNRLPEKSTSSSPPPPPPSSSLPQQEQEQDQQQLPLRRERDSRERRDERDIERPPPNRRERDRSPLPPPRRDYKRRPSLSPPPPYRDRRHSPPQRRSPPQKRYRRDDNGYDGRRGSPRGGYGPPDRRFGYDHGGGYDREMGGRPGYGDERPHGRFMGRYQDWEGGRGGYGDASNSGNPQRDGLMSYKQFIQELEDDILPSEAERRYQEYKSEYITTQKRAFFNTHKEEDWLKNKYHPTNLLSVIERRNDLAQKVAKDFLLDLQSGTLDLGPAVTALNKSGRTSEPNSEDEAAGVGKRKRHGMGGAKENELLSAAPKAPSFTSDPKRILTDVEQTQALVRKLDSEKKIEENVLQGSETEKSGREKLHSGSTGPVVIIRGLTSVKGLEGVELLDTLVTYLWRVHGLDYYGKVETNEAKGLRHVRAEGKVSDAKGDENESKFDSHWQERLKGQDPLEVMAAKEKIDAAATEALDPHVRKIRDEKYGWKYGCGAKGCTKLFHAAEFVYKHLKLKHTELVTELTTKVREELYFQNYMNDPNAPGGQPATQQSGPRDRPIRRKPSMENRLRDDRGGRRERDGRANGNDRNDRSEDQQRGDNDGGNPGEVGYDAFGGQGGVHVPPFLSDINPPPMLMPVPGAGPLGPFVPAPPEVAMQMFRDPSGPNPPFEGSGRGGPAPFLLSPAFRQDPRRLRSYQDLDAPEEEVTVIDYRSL

[2] = molecular target: DCL1 (Arabidopsis thaliana) (UniProt Q9SP32); experiment: SPR; settings: 150 mM NaCl; SPR (Biacore T100): 20 mM Tris-HCl pH 7.0, 50 or 150 mM NaCl, 2 mM β-ME (0.005% P20 for SE variants); proteins 42-43 nM (Fig 2E), SE 20 nM (Fig 4); recombinant protein; residues 1-1909; label: 5'-biotin on strand 1

CAACCCAAGAUAGAUCAUGCAGGCAGCUUCAUCAGAUGCCGCUCCCUCUUUUUUUCUCUA / GCUCCCUCUUUUUUUCUCUAGGCAUCUGAUGAAGCUGCCUGCAUGAUCUAUCUUGGGUUG [forked-RNA]
binding signal (fold decrease in RUmax vs 50 mM NaCl) [1]: 18 | binding signal (fold decrease in RUmax vs 50 mM NaCl) [2]: 4
